Results reported in PubChem BioAssay AID330 (DTP/NCI, 2004).
The list is a part of this screen's results and no random one: it is rich in T/C values a quarter to a half above the control, in often repeated tests (any T/C) and in doses without a T/C. Other doses and runs of a compound stand elsewhere. T/C is the treated group as % of the vehicle group. Some doses have a count of surviving animals in place of a T/C: the source holds a T/C of zero for them, seemingly a mark for toxic or unscored doses. Some survivor counts are full or nearly so, which does not show that the dose was tolerated: the source hardly ever lists a survival T/C far under the control, and the zero likely stands for such cases as well. Counts of survivors are from the toxicity check (mostly the fifth day) where no day follows; animals may have died later. Schedule codes are those of the source, read here as Q, the interval in days (D) or hours (H), X, the number of doses. Some entries hold several experiments; the results are listed from low to high. Where survival is the endpoint, the PubChem record calls one and a half times the control and up active, and a quarter to a half above the control has no call in these data; cut-offs in other NCI protocols can differ. Some T/C values are followed by the survivors on the day toxicity was checked, most often the fifth; without a count, all were alive then.

Tested on: P388 leukemia ip, CD2F1 mice, survival T/C
Assay: NCI In Vivo Anticancer Drug Screen. Data for tumor model P388 Leukemia (intraperitoneal) in CD2F1 (CDF1) mice
Details: T/C endpoint: median survival time, higher T/C = longer survival
[1] = dose: 50.0 mg/kg/injection, schedule: Q01DX009 (ip), vehicle: saline with Tween-80
[2] = dose: 100.0 mg/kg/injection, schedule: Q01DX009 (ip), vehicle: saline with Tween-80
[3] = dose: 200.0 mg/kg/injection, schedule: Q01DX009 (ip), vehicle: saline with Tween-80
[4] = dose: 400.0 mg/kg/injection, schedule: Q01DX009 (ip), vehicle: saline with Tween-80
[5] = dose: 100.0 mg/kg/injection, schedule: Q01DX005 (ip), vehicle: saline with Tween-80
[6] = dose: 200.0 mg/kg/injection, schedule: Q01DX005 (ip), vehicle: saline with Tween-80
[7] = dose: 400.0 mg/kg/injection, schedule: Q01DX009 (ip), vehicle: Klucel (hydroxypropylcellulose) (HPC)
[8] = dose: 50.0 mg/kg/injection, schedule: Q01DX005 (ip), vehicle: saline with Tween-80
[9] = dose: 100.0 mg/kg/injection, schedule: Q01DX009 (ip), vehicle: water
[10] = dose: 200.0 mg/kg/injection, schedule: Q01DX005 (ip), vehicle: Klucel (hydroxypropylcellulose) (HPC)

For CCC[CH2][Sn]([CH2]CCC)([O]C(=O)CCC(C)=O)[O]C(=O)CCC(C)=O, the T/C (dose: 6.25 mg/kg/injection, schedule: Q01DX009 (ip), vehicle: Klucel (hydroxypropylcellulose) (HPC)) was 129 and 142 % of control, the survivor count (dose: 12.5 mg/kg/injection, schedule: Q01DX009 (ip), vehicle: Klucel (hydroxypropylcellulose) (HPC)) was 6 of 6 and the survivor count (dose: 25.0 mg/kg/injection, schedule: Q01DX009 (ip), vehicle: Klucel (hydroxypropylcellulose) (HPC)) was 6 of 6. The survivor count [1] was 0 of 6, the survivor count [2] was 0 of 6 and the survivor count [3] was 0 of 6.
With CNC(=O)OCc1c(C)sc(-c2ccccc2)c1COC(=O)NC the survivor count (dose: 200.0 mg/kg/injection, schedule: Q01DX005 (ip), vehicle: distilled water + Tween-80) was 3 of 5.
For CCOC(=O)C1Cc2c([nH]c(=O)[nH]c2=O)OC1c1cccc(Cl)c1 (centres undefined), the survivor count [1] was 6 of 6, the survivor count [2] was 6 of 6 and the survivor count [3] was 6 of 6.
In the case of Cc1c2cc[n+]([O-])cc2c(C)c2c1oc1ccccc12, the T/C [1] is reported as 125 and 134 % of control, the T/C [2] is reported as 146 % of control and the survivor count [4] is reported as 6 of 6.
With Cc1cc2cc(N)ccc2[se]1 the survivor count (dose: 50.0 mg/kg/injection, schedule: Q01DX009 (ip), vehicle: saline) was 6 of 6.
For O=C(O)c1cc2ccccc2o1, the survivor count [4] was 1 of 3.
O=S(=O)([O][Hg][CH2]C1Cc2ccccc2O1)[O][Hg][CH2]C1Cc2ccccc2O1 (centres undefined) was tested, and the T/C (dose: 16.5 mg/kg/injection, schedule: Q01DX009 (ip), vehicle: saline with Tween-80) was 136 % of control [5 of 6 alive], the T/C (dose: 25.0 mg/kg/injection, schedule: Q01DX009 (ip), vehicle: saline with Tween-80) was 140 % of control [4 of 6 alive] and the survivor count (dose: 37.5 mg/kg/injection, schedule: Q01DX009 (ip), vehicle: saline with Tween-80) was 2 of 6.
In the case of CC(=O)OCn1cc2c3c(cccc31)C1CC(C)CN(C)C1C2 (centres undefined), the survivor count [5] is reported as 3 of 6 and the survivor count [6] is reported as 0 of 6.
In the case of C[C@]12CC[C@H](O)C[C@@H]1CC[C@@H]1[C@@H]2C(=O)C[C@]2(C)C3=CC(=O)O[C@H]3C[C@@H]12, the survivor count (dose: 200.0 mg/kg/injection, schedule: Q04DX003 (ip), vehicle: saline with Tween-80) is reported as 5 of 6 and the survivor count (dose: 400.0 mg/kg/injection, schedule: Q04DX003 (ip), vehicle: saline with Tween-80) is reported as 0 of 6.
O=S(=O)(CCl)OCCCl was tested, and the T/C [1] was 143 % of control, the T/C (dose: 100.0 mg/kg/injection, schedule: Q01DX001 (ip), vehicle: saline with Tween-80) was 131 % of control [5 of 6 alive] and the survivor count (dose: 150.0 mg/kg/injection, schedule: Q01DX009 (ip), vehicle: saline with Tween-80) was 0 of 6. The survivor count (dose: 200.0 mg/kg/injection, schedule: Q01DX001 (ip), vehicle: saline with Tween-80) was 1 of 6 and the survivor count (dose: 400.0 mg/kg/injection, schedule: Q01DX001 (ip), vehicle: saline with Tween-80) was 0 of 6.
With O=C(CBr)C(=O)OCc1ccccc1 the survivor count (dose: 12.5 mg/kg/injection, schedule: Q01DX009 (ip), vehicle: other) was 3 of 6, the survivor count (dose: 12.5 mg/kg/injection, schedule: Q01DX009 (ip), vehicle: water) was 6 of 6 and the survivor count (dose: 25.0 mg/kg/injection, schedule: Q01DX009 (ip), vehicle: other) was 0 of 6. The survivor count (dose: 50.0 mg/kg/injection, schedule: Q01DX009 (ip), vehicle: other) was 0 of 6, the survivor count (dose: 100.0 mg/kg/injection, schedule: Q01DX009 (ip), vehicle: other) was 0 of 6 and the survivor count (dose: 200.0 mg/kg/injection, schedule: Q01DX009 (ip), vehicle: other) was 0 of 6.
For OC1(O)CCC1(O)OCCBr (centres undefined), the survivor count (dose: 240.0 mg/kg/injection, schedule: Q01DX005 (ip), vehicle: saline with Tween-80) was 2 of 6.
COc1ccc(C/C(N)=N\O)cc1 was tested, and the survivor count [7] was 2 of 6.
COc1cccc2c1C(=O)c1c(O)c3c(c(O)c1C2=O)C[C@@](O)(C(=O)COC(=O)CCCCC(=O)O)C[C@@H]3OC1CC(NC(=O)C(F)(F)F)C(O)C(C)O1 (some centres undefined) was tested, and the T/C (dose: 37.5 mg/kg/injection, schedule: Q04DX003 (ip), vehicle: saline with Tween-80) was 144 % of control, the survivor count (dose: 75.0 mg/kg/injection, schedule: Q04DX003 (ip), vehicle: saline with Tween-80) was 2 of 6 on day 9 and the survivor count (dose: 150.0 mg/kg/injection, schedule: Q04DX003 (ip), vehicle: saline with Tween-80) was 2 of 6 on day 9. For the same molecule, the survivor count (dose: 300.0 mg/kg/injection, schedule: Q04DX003 (ip), vehicle: saline with Tween-80) was 1 of 6 on day 9.
CC(C)C(NC(=O)CCl)C(=O)O (centres undefined) was tested, and the survivor count [7] was 0 of 6.
In the case of COc1ccc(Cc2cc(O)c(OC)cc2O)cc1, the survivor count (dose: 2.5 mg/kg/injection, schedule: Q01DX009 (ip), vehicle: saline with Tween-80) is reported as 6 of 6.
In the case of C=CCc1ccc(OCCN(CC)CC)c(OC)c1, the survivor count [8] is reported as 2 of 6, the survivor count [5] is reported as 0 of 6 and the survivor count [6] is reported as 0 of 6.
In the case of C[C@@H]1C[C@@H]([C@H](O)CC2CC(=O)NC(=O)C2)C(=O)[C@@H](C)C1, the T/C (dose: 25.0 mg/kg/injection, schedule: Q01DX009 (ip), vehicle: water) is reported as 127 % of control, the T/C (dose: 50.0 mg/kg/injection, schedule: Q01DX009 (ip), vehicle: water) is reported as 134 % of control and the survivor count (dose: 60.0 mg/kg/injection, schedule: Q01DX009 (ip), vehicle: water) is reported as 3 of 6. For the same molecule, the T/C [9] was 132 % of control, the survivor count [9] was 2 of 6 and 3 of 6 and the T/C (dose: 108.0 mg/kg/injection, schedule: Q04DX003 (ip), vehicle: Klucel (hydroxypropylcellulose) (HPC)) was 137 % of control. The survivor count (dose: 140.0 mg/kg/injection, schedule: Q01DX009 (ip), vehicle: water) was 0 of 6, the survivor count (dose: 160.0 mg/kg/injection, schedule: Q01DX009 (ip), vehicle: water) was 3 of 6 and the survivor count (dose: 180.0 mg/kg/injection, schedule: Q04DX003 (ip), vehicle: Klucel (hydroxypropylcellulose) (HPC)) was 8 of 8. The survivor count (dose: 200.0 mg/kg/injection, schedule: Q01DX009 (ip), vehicle: water) was 2 of 6 and 4 of 6.
COc1ccc2cc3[n+](cc2c1O)CCc1cc2c(cc1-3)OCO2 was tested, and the T/C (dose: 50.0 mg/kg/injection, schedule: Q01DX005 (ip), vehicle: Klucel (hydroxypropylcellulose) (HPC)) was 134 and 140 % of control and the survivor count [10] was 0 of 6 and 4 of 6.
For Nc1ncc2c(n1)Oc1cc3nc4c(=O)nc(N)nc-4oc3cc1N2, the survivor count [10] was 2 of 5.
For CN(C)c1ccc(N=Nc2ccccc2)cc1, the survivor count (dose: 125.0 mg/kg/injection, schedule: Q01DX009 (ip), vehicle: saline with Tween-80) was 6 of 6.
With CN=C1SC(C)(C)NN1C the survivor count (dose: 100.0 mg/kg/injection, schedule: Q01DX005 (ip), vehicle: Klucel (hydroxypropylcellulose) (HPC)) was 1 of 6 and the survivor count [10] was 0 of 6.
With CCOP(=O)(O)C1CCCC(C)[N-]1.CCOP(=O)(O)C1CCCC(C)[N-]1.[Ni+2] (centres undefined) the survivor count (dose: 100.0 mg/kg/injection, schedule: Q04DX003 (ip), vehicle: Klucel (hydroxypropylcellulose) (HPC)) was 1 of 6, the survivor count (dose: 200.0 mg/kg/injection, schedule: Q04DX003 (ip), vehicle: Klucel (hydroxypropylcellulose) (HPC)) was 0 of 6 and the survivor count (dose: 400.0 mg/kg/injection, schedule: Q04DX003 (ip), vehicle: Klucel (hydroxypropylcellulose) (HPC)) was 0 of 6.
With COc1ccc(N2C(N)=NC(N)=NC2(C)C)cc1 the survivor count [8] was 3 of 5, the survivor count [5] was 0 of 5 and the survivor count [6] was 0 of 5.
For Cc1cccc(CNc2cccc(C)n2)n1, the survivor count (dose: 200.0 mg/kg/injection, schedule: Q01DX005 (ip), vehicle: saline) was 0 of 6.
In the case of N#Cc1c(-c2ccccc2)cn2c1[nH]c(=O)c1c3c(sc12)CCCC3, the survivor count (dose: 120.0 mg/kg/injection, schedule: Q01DX005 (ip), vehicle: saline with Tween-80) is reported as 6 of 6.
With C/C(=N\N=C(N)N)c1ccc2c(c1)Cc1cc(/C(C)=N/N=C(N)N)ccc1-2 the survivor count (dose: 200.0 mg/kg/injection, schedule: Q04DX002 (ip), vehicle: saline with Tween-80) was 4 of 6.
